The full ranking holds about 33,000 sequences; the median of “E-score (-0.5 to 0.5)” is about -0.015, and the highest 2% start at about 0.3. This is one part of the list.
molecular target: T1, Abf1 (UniProt P14164); assay: PBM E-score (8-mer binding enrichment) (E-score (-0.5 to 0.5)); higher = stronger / more preferred TF binding; details: protein concentration: 200 nM; construct: GST-full length
T1 sequence: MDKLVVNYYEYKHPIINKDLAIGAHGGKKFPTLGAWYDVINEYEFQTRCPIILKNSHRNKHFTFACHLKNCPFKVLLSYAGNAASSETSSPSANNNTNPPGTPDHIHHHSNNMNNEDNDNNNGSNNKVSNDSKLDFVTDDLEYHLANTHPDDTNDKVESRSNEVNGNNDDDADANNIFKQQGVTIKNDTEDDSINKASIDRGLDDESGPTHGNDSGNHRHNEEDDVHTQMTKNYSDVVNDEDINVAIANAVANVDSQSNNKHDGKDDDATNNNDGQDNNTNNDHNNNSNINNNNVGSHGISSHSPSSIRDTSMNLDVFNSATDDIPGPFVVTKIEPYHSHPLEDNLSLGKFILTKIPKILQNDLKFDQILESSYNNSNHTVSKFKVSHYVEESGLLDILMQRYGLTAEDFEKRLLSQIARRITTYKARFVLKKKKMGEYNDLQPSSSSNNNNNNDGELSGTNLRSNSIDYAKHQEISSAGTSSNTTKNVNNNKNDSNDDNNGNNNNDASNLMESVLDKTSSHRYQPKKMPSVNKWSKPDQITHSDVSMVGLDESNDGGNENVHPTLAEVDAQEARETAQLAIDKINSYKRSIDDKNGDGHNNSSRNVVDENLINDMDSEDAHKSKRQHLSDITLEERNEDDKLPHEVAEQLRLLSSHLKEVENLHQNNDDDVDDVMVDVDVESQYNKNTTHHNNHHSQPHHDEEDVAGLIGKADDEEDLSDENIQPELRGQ
Summary of the method: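 Masliner-normalised scans of fluorescent anti-GST signal were the basis for scoring. That signal came from GST-tagged yeast transcription factors applied at about 100-200 nM to double-stranded universal all-10-mer Agilent arrays on fresh or once-stripped slides. Each ungapped eight-base word, pooled with its reverse complement, received an E-score from the Universal PBM Analysis Suite.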

| Sequence | PBM E-score |
| --- | --- |
| TCGGGTAA | -0.126 |
| CGGCCTGC | -0.27 |
| GCCTAAAC | -0.0714 |
| ATGGCCGA | -0.024 |
| GGCGGCAA | -0.0496 |
| AGTAGTGC | -0.1 |
| GTGTCCTA | -0.0229 |
| GCGAAGAA | 0.148 |
| CGGAAGCC | -0.2 |
| GCAACATA | 0.0454 |
| AGTGGCGA | 0.0606 |
| GTGTCTGA | -0.0561 |
| TGACACCA | -0.0554 |
| ATTCCACG | 0.0645 |
| CTAAATTC | 0.137 |
| CGGTTCAC | -0.0967 |
| AACGTTAG | 0.133 |
| GGGTACTA | 0.0786 |
| CACTCCTA | 0.13 |
| TCCGCACA | -0.0757 |
| ATAAAAAA | 0.134 |
| CGTGGCGA | 0.194 |
| ATGAGGTA | 0.0798 |
| AAGACGTA | 0.245 |
| AAGCGGAT | -0.18 |

| Sequence | PBM E-score |
| --- | --- |
| GACTAAGA | 0.0632 |
| ATCAGTTA | 0.156 |
| AGGTGGAT | -0.0903 |
| ACGATGAT | 0.322 |
| CTTTTCTA | 0.0514 |
| CGATCCAG | -0.0671 |
| GTTCGGCA | 0.0673 |
| CTTCTAAA | 0.116 |
| TAGACTGA | -0.0649 |
| ACGCTGAG | -0.0124 |
| ACTCACCA | -0.058 |
| TAATGGAA | 0.0705 |
| CGAATCAC | 0.246 |
| AAAATACC | 0.114 |
| AAGACCCC | -0.00909 |
| AGCAAGCT | -0.315 |
| AATCAACC | -0.0117 |
| AGAAGTGC | -0.00824 |
| AAGGAACC | -0.053 |
| AAAAGTAT | 0.159 |
| GTGTTCTA | 0.00768 |
| ACGGCGTA | 0.287 |
| ATTTGAGA | 0.0567 |
| AACCTCGA | -0.0703 |
| CTAAGAGC | -0.3 |

| Sequence | PBM E-score |
| --- | --- |
| CCTTCATA | 0.0639 |
| GCCCCGCC | -0.188 |
| CGTCGTGA | 0.351 |
| ACTAACGA | 0.231 |
| ACCTTTGG | -0.236 |
| GAGTTAGC | 0.0721 |
| GTGCGCAA | 0.0394 |
| AGGGGACT | -0.0774 |
| CGTTTCGC | -0.00566 |
| GCAACTAA | 0.152 |
| CGAACGCG | 0.162 |
| TCCCTCGA | -0.116 |
| GTCGTCTA | 0.287 |
| CAAGAAGC | 0.0432 |
| AGGCCTCA | -0.116 |
| AGTAAACA | 0.0317 |
| CAACGGAG | -0.039 |
| CTTACAGC | 0.00998 |
| CCACTCAG | -0.199 |
| CACCCGGA | -0.0476 |
| CCCCGGAC | -0.105 |
| GGAGGGAC | -0.178 |
| CAGGACTG | -0.0757 |
| CTTACTAC | 0.148 |
| ATCGCCCC | -0.113 |

| Sequence | PBM E-score |
| --- | --- |
| CGATAGAC | 0.144 |
| ATTTTTGG | -0.00624 |
| ACTAGTGC | 0.104 |
| CACACCCA | 0.08 |
| ACACTAAC | 0.0344 |
| GTACTAAA | 0.226 |
| CCTCCTAC | -0.28 |
| CCGACGTA | 0.0955 |
| GTCTCCAA | 0.00955 |
| CTCTGTAC | 0.099 |
| ATCAGAAT | 0.0679 |
| CTACGTTC | 0.017 |
| ACGCACCC | -0.178 |
| AGCAATCA | -0.0101 |
| AGCCCGCC | -0.174 |
| GAACGCTC | -0.0341 |
| ATATGACC | -0.0352 |
| CTTCATGA | 0.13 |
| CAGCATGG | -0.147 |
| GAAATACC | 0.0952 |
| GAAGCCCC | -0.254 |
| ATAGGAAT | -0.0297 |
| CAGCGAGC | 0.185 |
| AGGAGAGG | -0.224 |
| AGGCAGGG | -0.248 |

| Sequence | PBM E-score |
| --- | --- |
| GGAGAAGA | -0.209 |
| TCCCCTCA | -0.0459 |
| AAGTCCCT | -0.0859 |
| GCGTTTAC | -0.132 |
| CGCCGTAA | 0.0647 |
| CTTTGCTA | -0.00827 |
| CGCGTGCC | 0.0605 |
| CAGAAGAC | 0.121 |
| AGGTCCAG | 0.0361 |
| TAGCCCCA | -0.208 |
| ACCATATG | -0.104 |
| CTGCTCGA | -0.263 |
| AAACTCGA | -0.0506 |
| ACACATGG | -0.102 |
| CCCCCTCC | -0.37 |
| GTGAGGCA | 0.122 |
| CTAAGGAA | -0.0229 |
| ATGTGCCC | -0.0158 |
| GAGAACGC | -0.0847 |
| CCTGAGTC | -0.0814 |
| ACCATGTA | 0.0521 |
| ATTTGGTG | 0.0293 |
| ATCACCGG | 0.101 |
| ATTCCGTA | 0.166 |
| CTCGCCAA | -0.137 |

Quoted from above (7 entries):

| Sequence | PBM E-score |
| --- | --- |
| GACTAAGA | 0.0632 |
| ATCAGTTA | 0.156 |
| AGGTGGAT | -0.0903 |
| ACGATGAT | 0.322 |
| CTTTTCTA | 0.0514 |
| CGATCCAG | -0.0671 |
| GTTCGGCA | 0.0673 |

The results go on.

| Sequence | PBM E-score |
| --- | --- |
| CCGCATAG | -0.026 |
| GCTTAAAC | -0.189 |
| AAACCATT | -0.0604 |
| GTAATGAA | 0.0369 |
| AGGAGCAG | -0.293 |
| CATTACTC | 0.00345 |
| ATGCTGTC | 0.0728 |
| ATGCGTGA | 0.177 |
| AACCAAGC | -0.204 |
| CCGCCGGA | -0.07 |
| GCTCACGA | 0.125 |
| GATTGTCC | 0.179 |
| ACAATATC | 0.265 |
| CGGTCGGA | 0.0636 |
| CTATGGTA | 0.0305 |
| ACAGTTAC | 0.0978 |
| AACCACGC | -0.0491 |
| GACCATAA | 0.129 |
| CGCGTACA | 0.117 |
| AGTGCGTC | -0.125 |
| CGTAGACC | -0.0641 |
| TAAAGGAA | -0.0901 |
| ATAGGGCG | 0.0271 |
| AGCGTTCG | -0.117 |
| ACAGGTGG | -0.0522 |

| Sequence | PBM E-score |
| --- | --- |
| CGCCCACA | -0.153 |
| ATAAGCCA | 0.0643 |
| CGTAAGAA | 0.282 |
| CTATTGAC | 0.136 |
| ATGCTACA | 0.128 |
| AAGGTAGC | -0.0728 |
| CCTGCACG | 0.137 |
| AGTATAGC | -0.176 |
| GATAATCC | 0.0776 |
| AGAGCTGC | -0.161 |
| ACACCACG | -0.153 |
| CAATGAAC | -0.0206 |
| ACCATGAG | -0.108 |
| CTATCGTA | 0.281 |
| CAATTTTC | -0.0326 |
| AGATCCTC | -0.0761 |
| ATCTGTTA | 0.178 |
| CGATCCCA | -0.00308 |
| AAGAAACT | 0.00097 |
| AGGGGGCA | -0.273 |
| CCCCCTGA | -0.383 |
| ACGAGCAA | 0.0253 |

From the supplement of paper PMC3334620
